Data as given in PubChem BioAssay AID1259300 (Sanger Institute, 2017).
Aim: 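Kinase and colorectal-mutated gene knock-downs lowering HCT15 viability or boosting drug effects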 (primary screen). System: HCT15 colorectal cancer cells. Reagent: siRNA pool against human genes. Conditions: anchor drug or DMSO vehicle added 24 h after seeding: BYL719 1 µM, cetuximab 5 µg/ml, trametinib 10 nM; drug doses chosen to barely affect viability alone. Measurement: 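Cell viability after knock-down, as fraction of non-targeting pool wells averaged over replicates, plus robust z-score for knock-down alone; synergy score per drug (BYL719 1 µM, cetuximab 5 µg/ml, trametinib 10 nM)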. Scale: viability z-score, siRNA alone: higher = more viable cells after knock-down; viability vs non-targeting, siRNA alone: higher = more viable cells. Hit rule: 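a knock-down without drug that drives the robust viability z-score under -3 is active, i.e. essential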. Calls: active = essential: knock-down alone lowers viability (z below -3); inactive = no strong viability loss with knock-down alone.
The whole screen tested 794 reagents; shown is an unselected part. 18 of all reagents (2.3%) count as active. 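Calls rest on knock-down alone, not drug synergy; depositor treated synergy scores above 0.15 as synergistic; drug doses alone had little viability effect.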 A number with no mark means an inactive call. Viability is capped at 1. Not all columns of the deposit are shown. Reagent sequences are not shown. Not given: the amount of reagent, the time to read-out.

For TK2, the values are viability z-score, siRNA alone -0.117; viability vs non-targeting, siRNA alone 0.946. After knock-down of PRKCE the results were viability z-score, siRNA alone -0.883; viability vs non-targeting, siRNA alone 0.89. TWF1 gave viability z-score, siRNA alone 0.625; viability vs non-targeting, siRNA alone 1. Knock-down of LRRK1 resulted in: viability z-score, siRNA alone 0.625; viability vs non-targeting, siRNA alone 1. PDIK1L gave viability z-score, siRNA alone 0.625; viability vs non-targeting, siRNA alone 1. With knock-down of CAMK2D, the screen gave viability z-score, siRNA alone 0.625; viability vs non-targeting, siRNA alone 1.

MAST4 showed viability z-score, siRNA alone 0.445; viability vs non-targeting, siRNA alone 0.987. After knock-down of CSNK1E the results were viability z-score, siRNA alone 0.566; viability vs non-targeting, siRNA alone 0.996. CHKA scored viability z-score, siRNA alone -1.08; viability vs non-targeting, siRNA alone 0.876. Silencing of PHKA2 resulted in: viability z-score, siRNA alone -0.72; viability vs non-targeting, siRNA alone 0.902. For MAP3K5, the values are viability z-score, siRNA alone 0.518; viability vs non-targeting, siRNA alone 0.992. Silencing of PTPN11 came out at: viability z-score, siRNA alone -0.076; viability vs non-targeting, siRNA alone 0.949.

After knock-down of PIM2, the screen gave viability z-score, siRNA alone 0.625; viability vs non-targeting, siRNA alone 1. Against SNRK, the values are viability z-score, siRNA alone -1.11; viability vs non-targeting, siRNA alone 0.874. Depletion of PRKAR2B gave: viability z-score, siRNA alone -0.88; viability vs non-targeting, siRNA alone 0.891. For MAP3K12 the deposit lists viability z-score, siRNA alone 0.343; viability vs non-targeting, siRNA alone 0.979. After knock-down of TPK1, the record shows viability z-score, siRNA alone -0.369; viability vs non-targeting, siRNA alone 0.928. For PIK3C2A, the entry reads viability z-score, siRNA alone -1.45; viability vs non-targeting, siRNA alone 0.849.

CDKN2C showed viability z-score, siRNA alone 0.625; viability vs non-targeting, siRNA alone 1. After knock-down of TTBK2 the results were viability z-score, siRNA alone 0.625; viability vs non-targeting, siRNA alone 1. After knock-down of DIS3, the screen gave viability z-score, siRNA alone -0.0434; viability vs non-targeting, siRNA alone 0.951. MOS showed viability z-score, siRNA alone 0.625; viability vs non-targeting, siRNA alone 1. Knock-down of CHD9 resulted in: viability z-score, siRNA alone 0.459; viability vs non-targeting, siRNA alone 0.988. Knock-down of STK17B resulted in: viability z-score, siRNA alone 0.455; viability vs non-targeting, siRNA alone 0.988.

EPHA6 showed viability z-score, siRNA alone -0.726; viability vs non-targeting, siRNA alone 0.902. After knock-down of IKBKE, the record shows viability z-score, siRNA alone -1.86; viability vs non-targeting, siRNA alone 0.819. After knock-down of FES, the record shows viability z-score, siRNA alone 0.625; viability vs non-targeting, siRNA alone 1. With knock-down of MAP4K2, the record shows viability z-score, siRNA alone -0.927; viability vs non-targeting, siRNA alone 0.887.

No new results follow: an excerpt of the list.
TTBK2 | viability z-score, siRNA alone = 0.625; viability vs non-targeting, siRNA alone = 1
DIS3 | viability z-score, siRNA alone = -0.0434; viability vs non-targeting, siRNA alone = 0.951
MOS | viability z-score, siRNA alone = 0.625; viability vs non-targeting, siRNA alone = 1
